{
  "sequences": {"note": "By UniProt entry, the sequences of proteins in these tests, tags left out.", "UniProt Q86WV6": "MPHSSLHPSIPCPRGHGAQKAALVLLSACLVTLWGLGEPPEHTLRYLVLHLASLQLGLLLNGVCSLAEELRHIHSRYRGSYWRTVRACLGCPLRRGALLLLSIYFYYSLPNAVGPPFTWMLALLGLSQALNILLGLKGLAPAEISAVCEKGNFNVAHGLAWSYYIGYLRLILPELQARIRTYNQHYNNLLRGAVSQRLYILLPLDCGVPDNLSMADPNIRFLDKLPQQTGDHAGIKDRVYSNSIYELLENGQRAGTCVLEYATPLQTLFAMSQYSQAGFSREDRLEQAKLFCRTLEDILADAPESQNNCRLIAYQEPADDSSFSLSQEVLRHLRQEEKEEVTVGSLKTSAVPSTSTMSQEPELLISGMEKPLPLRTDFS"},
  "source": "paper PMC7958565",
  "binders": {"B1": {"name": "endogenous TBK1, Q9UHD2 1-729 (enzyme)", "chain": "MQSTSNHLWLLSDILGQGATANVFRGRHKKTGDLFAIKVFNNISFLRPVDVQMREFEVLKKLNHKNIVKLFAIEEETTTRHKVLIMEFCPCGSLYTVLEEPSNAYGLPESEFLIVLRDVVGGMNHLRENGIVHRDIKPGNIMRVIGEDGQSVYKLTDFGAARELEDDEQFVSLYGTEEYLHPDMYERAVLRKDHQKKYGATVDLWSIGVTFYHAATGSLPFRPFEGPRRNKEVMYKIITGKPSGAISGVQKAENGPIDWSGDMPVSCSLSRGLQVLLTPVLANILEADQEKCWGFDQFFAETSDILHRMVIHVFSLQQMTAHKIYIHSYNTATIFHELVYKQTKIISSNQELIYEGRRLVLEPGRLAQHFPKTTEENPIFVVSREPLNTIGLIYEKISLPKVHPRYDLDGDASMAKAITGVVCYACRIASTLLLYQELMRKGIRWLIELIKDDYNETVHKKTEVVITLDFCIRNIEKTVKVYEKLMKINLEAAELGEISDIHTKLLRLSSSQGTIETSLQDIDSRLSPGGSLADAWAHQEGTHPKDRNVEKLQVLLNCMTEIYYQFKKDKAERRLAYNEEQIHKFDKQKLYYHATKAMTHFTDECVKKYEAFLNKSEEWIRKMLHLRKQLLSLTNQCFDIEEEVSKYQEYTNELQETLPQKMFTASSGIKHTMTPIYPSSNTLVEMTLGMKKLKEEMEGVVKELAENNHILERFGSLTMDGGLRNVDCL"}, "B2": {"name": "endogenous IKKβ (enzyme, UniProt O14920 1-756)", "chain": "MSWSPSLTTQTCGAWEMKERLGTGGFGNVIRWHNQETGEQIAIKQCRQELSPRNRERWCLEIQIMRRLTHPNVVAARDVPEGMQNLAPNDLPLLAMEYCQGGDLRKYLNQFENCCGLREGAILTLLSDIASALRYLHENRIIHRDLKPENIVLQQGEQRLIHKIIDLGYAKELDQGSLCTSFVGTLQYLAPELLEQQKYTVTVDYWSFGTLAFECITGFRPFLPNWQPVQWHSKVRQKSEVDIVVSEDLNGTVKFSSSLPYPNNLNSVLAERLEKWLQLMLMWHPRQRGTDPTYGPNGCFKALDDILNLKLVHILNMVTGTIHTYPVTEDESLQSLKARIQQDTGIPEEDQELLQEAGLALIPDKPATQCISDGKLNEGHTLDMDLVFLFDNSKITYETQISPRPQPESVSCILQEPKRNLAFFQLRKVWGQVWHSIQTLKEDCNRLQQGQRAAMMNLLRNNSCLSKMKNSMASMSQQLKAKLDFFKTSIQIDLEKYSEQTEFGITSDKLLLAWREMEQAVELCGRENEVKLLVERMMALQTDIVDLQRSPMGRKQGGTLDDLEEQARELYRRLREKPRDQRTEGDSQEMVRLLLQAIQSFEKKVRVIYTQLSKTVVCKQKALELLPKVEEVVSLMNEDEKTVVRLQEKRQKELWNLLKIACSKVRGPVSGSPDSMNASRLSQPGQLMSQPSTASNSLPEPAKKSEELVAEAHNLCTLLENAIQDTVREQDQSFTALDWSWLQTEEEEHSCLEQAS"}},
  "key": {"[1]": {"target": "human STING-Flag (human), Q86WV6", "test": "co-IP", "details": "remark: other sources report otherwise"}, "human STING-Flag (human)": {"target": "human STING-Flag (human) (UniProt Q86WV6)", "test": "co-IP"}},
  "note": "These are yes or no findings as the source states them, for the method shown. In cells and extracts the contact can be indirect. Some binding calls cover weakened binding; strength is not graded here.",
  "data": [
    {"binder": "B1", "values": [
      {"measurement": "binding", "setting": "[1]", "result": "binds"}
    ]},
    {"binder": "B2", "values": [
      {"measurement": "binding", "setting": "human STING-Flag (human)", "result": "binds"}
    ]}
  ]
}
